{"sequences": {"note": "Amino acid sequences for entries named in this document (tags omitted).", "UniProt Q00839": "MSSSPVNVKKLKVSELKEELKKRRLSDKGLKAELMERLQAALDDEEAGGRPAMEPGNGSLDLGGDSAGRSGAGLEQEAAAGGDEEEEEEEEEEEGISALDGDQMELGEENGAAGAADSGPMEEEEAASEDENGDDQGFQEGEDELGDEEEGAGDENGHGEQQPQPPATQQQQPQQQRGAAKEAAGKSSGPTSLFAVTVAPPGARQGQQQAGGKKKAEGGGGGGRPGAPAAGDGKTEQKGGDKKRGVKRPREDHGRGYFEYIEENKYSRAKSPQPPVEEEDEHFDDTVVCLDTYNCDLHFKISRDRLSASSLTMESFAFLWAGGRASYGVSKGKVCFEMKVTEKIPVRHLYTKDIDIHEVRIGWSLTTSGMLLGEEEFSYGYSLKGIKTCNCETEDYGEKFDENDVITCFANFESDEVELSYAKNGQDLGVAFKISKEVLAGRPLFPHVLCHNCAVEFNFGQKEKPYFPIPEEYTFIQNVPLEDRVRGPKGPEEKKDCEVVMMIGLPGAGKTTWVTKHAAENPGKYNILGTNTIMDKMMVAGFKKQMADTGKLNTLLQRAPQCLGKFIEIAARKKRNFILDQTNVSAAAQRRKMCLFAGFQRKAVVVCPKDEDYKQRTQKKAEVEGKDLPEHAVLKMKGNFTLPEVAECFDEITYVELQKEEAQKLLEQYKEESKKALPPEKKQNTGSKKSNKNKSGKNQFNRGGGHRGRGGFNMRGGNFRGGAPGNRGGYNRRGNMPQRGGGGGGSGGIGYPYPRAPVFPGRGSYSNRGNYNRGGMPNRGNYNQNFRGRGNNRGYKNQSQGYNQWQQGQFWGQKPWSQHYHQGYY", "UniProt Q06587": "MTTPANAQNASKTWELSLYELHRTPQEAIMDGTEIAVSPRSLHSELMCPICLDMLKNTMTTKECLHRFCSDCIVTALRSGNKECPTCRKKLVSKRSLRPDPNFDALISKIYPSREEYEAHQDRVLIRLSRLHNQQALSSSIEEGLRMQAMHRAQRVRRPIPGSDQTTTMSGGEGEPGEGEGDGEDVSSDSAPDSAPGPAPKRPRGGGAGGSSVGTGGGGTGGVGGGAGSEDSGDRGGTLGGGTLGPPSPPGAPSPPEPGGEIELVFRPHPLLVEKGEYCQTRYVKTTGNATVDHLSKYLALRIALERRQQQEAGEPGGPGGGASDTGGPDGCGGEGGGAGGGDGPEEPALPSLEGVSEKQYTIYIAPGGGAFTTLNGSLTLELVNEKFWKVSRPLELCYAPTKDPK", "UniProt P45973": "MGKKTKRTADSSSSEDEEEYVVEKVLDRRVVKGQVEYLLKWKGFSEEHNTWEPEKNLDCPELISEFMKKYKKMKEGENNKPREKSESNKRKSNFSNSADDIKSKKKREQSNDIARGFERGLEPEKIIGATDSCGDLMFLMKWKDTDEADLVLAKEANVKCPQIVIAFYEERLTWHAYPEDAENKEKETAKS", "UniProt P35226": "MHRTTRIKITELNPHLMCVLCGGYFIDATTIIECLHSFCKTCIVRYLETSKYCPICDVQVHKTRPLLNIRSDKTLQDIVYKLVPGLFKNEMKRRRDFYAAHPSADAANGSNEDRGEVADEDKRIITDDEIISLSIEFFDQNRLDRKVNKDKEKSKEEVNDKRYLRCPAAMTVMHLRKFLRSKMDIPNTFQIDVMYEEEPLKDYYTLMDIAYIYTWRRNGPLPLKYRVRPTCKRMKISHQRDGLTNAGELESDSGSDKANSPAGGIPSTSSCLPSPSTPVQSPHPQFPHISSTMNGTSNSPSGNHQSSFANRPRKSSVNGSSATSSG", "UniProt Q15022": "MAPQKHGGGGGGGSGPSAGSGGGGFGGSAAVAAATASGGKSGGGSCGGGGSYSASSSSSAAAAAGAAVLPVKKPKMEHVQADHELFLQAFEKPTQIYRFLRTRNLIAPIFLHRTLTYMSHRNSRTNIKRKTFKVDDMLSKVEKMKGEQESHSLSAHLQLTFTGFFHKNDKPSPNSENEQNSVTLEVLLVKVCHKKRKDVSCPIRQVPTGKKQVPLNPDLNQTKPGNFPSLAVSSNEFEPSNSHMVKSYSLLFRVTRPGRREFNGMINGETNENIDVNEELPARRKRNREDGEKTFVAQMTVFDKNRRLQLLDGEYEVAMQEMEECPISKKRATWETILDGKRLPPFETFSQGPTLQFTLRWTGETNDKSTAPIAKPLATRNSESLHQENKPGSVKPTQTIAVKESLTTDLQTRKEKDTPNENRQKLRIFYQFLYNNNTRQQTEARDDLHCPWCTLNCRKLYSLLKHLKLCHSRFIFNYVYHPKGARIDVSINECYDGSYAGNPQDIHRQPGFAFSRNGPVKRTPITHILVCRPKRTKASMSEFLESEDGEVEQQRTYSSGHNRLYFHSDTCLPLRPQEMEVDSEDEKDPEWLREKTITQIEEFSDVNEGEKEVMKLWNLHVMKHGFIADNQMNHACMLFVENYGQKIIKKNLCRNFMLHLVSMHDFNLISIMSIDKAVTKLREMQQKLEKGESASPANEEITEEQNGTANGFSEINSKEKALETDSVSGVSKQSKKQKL"}, "source": "paper PMC4263151", "key": {"[1]": {"biological_target": "scaffold-attachment-factor A (SAFA), endogenous in BJ fibroblasts (human (endogenous in BJ fibroblasts)) (UniProt Q00839)", "assay": "co-IP; endogenous proteins; EtOH-treated pre-senescent proliferating ER:Ras^V12 BJ fibroblasts (for HP1 and β-actin also 4OHT-induced cells at day 2); IP with antibody to SAFA or IgG, blots for EZH2, BMI1, HP1α and β-actin"}, "[2]": {"biological_target": "RING1A, endogenous in BJ fibroblasts (human (endogenous in BJ fibroblasts)) (UniProt Q06587)", "assay": "co-IP; Supplementary Fig. 3h; SAFA-silenced and senescent cells and their controls; antibodies and direction not told in the text shown; taken as a co-IP from the sentences before it"}, "[3]": {"biological_target": "scaffold-attachment-factor A (SAFA), endogenous in HEK293 cells (human (endogenous in HEK293)) (UniProt Q00839)", "assay": "co-IP; lysates of HEK293 cells overexpressing HA-BMI1, FLAG-SUZ12 or FLAG-EZH2; IP with antibodies to HA, FLAG and SAFA, blots for HA, FLAG and SAFA; 300 mM NaCl, 10 mM Tris pH 8.0, 0.5% NP-40, 1 mM EDTA, over night at 4 °C"}, "[4]": {"biological_target": "FLAG-tagged SAFAwt (wild-type) (UniProt Q00839)", "assay": "co-IP; lysates of HEK293 cells overexpressing FLAG-tagged wild-type or mutant SAFA; IP with antibody to FLAG, blots for FLAG, BMI1 and EZH2; ratios by densitometry"}}, "note": "Results are given in words; binding and its absence hold for the method and conditions named. In cells and extracts the contact can be indirect. Some entries that bind do so weakly or less than the wild type."}
{"substance": "HP1α, endogenous in BJ fibroblasts (from UniProt P45973 1-191)", "values": [{"measurement": "binding", "setting": "[1]", "result": "binds"}]}
{"substance": "BMI1, endogenous in BJ fibroblasts (from UniProt P35226 1-326)", "values": [{"measurement": "binding", "setting": "[1]", "result": "binds"}, {"measurement": "binding", "setting": "[2]", "result": "binds"}]}
{"substance": "HA-tagged PRC1 component BMI1 (from UniProt P35226 1-326)", "values": [{"measurement": "binding", "setting": "[3]", "result": "binds"}]}
{"substance": "FLAG-tagged PRC2 core component SUZ12 (from UniProt Q15022 1-739)", "values": [{"measurement": "binding", "setting": "[3]", "result": "binds"}]}
{"substance": "BMI1, endogenous in HEK293 cells (from UniProt P35226 1-326)", "values": [{"measurement": "binding", "setting": "[4]", "result": "binds"}]}
